Consider three molecules from paper PMC10869718.

Chains of the proteins cited; added tags and fusions are not shown.
UniProt P46937: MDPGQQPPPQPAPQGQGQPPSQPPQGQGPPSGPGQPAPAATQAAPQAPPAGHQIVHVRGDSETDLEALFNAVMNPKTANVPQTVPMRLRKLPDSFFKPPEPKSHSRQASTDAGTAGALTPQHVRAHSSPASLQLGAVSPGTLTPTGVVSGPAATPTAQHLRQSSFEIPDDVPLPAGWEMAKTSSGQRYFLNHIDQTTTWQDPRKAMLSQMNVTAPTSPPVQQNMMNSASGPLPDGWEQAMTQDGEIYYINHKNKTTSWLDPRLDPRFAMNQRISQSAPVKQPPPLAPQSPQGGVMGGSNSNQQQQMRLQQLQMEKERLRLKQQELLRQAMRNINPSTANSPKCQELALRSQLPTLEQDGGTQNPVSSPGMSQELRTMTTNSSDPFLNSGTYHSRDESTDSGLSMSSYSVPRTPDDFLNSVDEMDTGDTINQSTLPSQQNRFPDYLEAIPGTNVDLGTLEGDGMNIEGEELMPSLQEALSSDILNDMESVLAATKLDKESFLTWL
UniProt P21333: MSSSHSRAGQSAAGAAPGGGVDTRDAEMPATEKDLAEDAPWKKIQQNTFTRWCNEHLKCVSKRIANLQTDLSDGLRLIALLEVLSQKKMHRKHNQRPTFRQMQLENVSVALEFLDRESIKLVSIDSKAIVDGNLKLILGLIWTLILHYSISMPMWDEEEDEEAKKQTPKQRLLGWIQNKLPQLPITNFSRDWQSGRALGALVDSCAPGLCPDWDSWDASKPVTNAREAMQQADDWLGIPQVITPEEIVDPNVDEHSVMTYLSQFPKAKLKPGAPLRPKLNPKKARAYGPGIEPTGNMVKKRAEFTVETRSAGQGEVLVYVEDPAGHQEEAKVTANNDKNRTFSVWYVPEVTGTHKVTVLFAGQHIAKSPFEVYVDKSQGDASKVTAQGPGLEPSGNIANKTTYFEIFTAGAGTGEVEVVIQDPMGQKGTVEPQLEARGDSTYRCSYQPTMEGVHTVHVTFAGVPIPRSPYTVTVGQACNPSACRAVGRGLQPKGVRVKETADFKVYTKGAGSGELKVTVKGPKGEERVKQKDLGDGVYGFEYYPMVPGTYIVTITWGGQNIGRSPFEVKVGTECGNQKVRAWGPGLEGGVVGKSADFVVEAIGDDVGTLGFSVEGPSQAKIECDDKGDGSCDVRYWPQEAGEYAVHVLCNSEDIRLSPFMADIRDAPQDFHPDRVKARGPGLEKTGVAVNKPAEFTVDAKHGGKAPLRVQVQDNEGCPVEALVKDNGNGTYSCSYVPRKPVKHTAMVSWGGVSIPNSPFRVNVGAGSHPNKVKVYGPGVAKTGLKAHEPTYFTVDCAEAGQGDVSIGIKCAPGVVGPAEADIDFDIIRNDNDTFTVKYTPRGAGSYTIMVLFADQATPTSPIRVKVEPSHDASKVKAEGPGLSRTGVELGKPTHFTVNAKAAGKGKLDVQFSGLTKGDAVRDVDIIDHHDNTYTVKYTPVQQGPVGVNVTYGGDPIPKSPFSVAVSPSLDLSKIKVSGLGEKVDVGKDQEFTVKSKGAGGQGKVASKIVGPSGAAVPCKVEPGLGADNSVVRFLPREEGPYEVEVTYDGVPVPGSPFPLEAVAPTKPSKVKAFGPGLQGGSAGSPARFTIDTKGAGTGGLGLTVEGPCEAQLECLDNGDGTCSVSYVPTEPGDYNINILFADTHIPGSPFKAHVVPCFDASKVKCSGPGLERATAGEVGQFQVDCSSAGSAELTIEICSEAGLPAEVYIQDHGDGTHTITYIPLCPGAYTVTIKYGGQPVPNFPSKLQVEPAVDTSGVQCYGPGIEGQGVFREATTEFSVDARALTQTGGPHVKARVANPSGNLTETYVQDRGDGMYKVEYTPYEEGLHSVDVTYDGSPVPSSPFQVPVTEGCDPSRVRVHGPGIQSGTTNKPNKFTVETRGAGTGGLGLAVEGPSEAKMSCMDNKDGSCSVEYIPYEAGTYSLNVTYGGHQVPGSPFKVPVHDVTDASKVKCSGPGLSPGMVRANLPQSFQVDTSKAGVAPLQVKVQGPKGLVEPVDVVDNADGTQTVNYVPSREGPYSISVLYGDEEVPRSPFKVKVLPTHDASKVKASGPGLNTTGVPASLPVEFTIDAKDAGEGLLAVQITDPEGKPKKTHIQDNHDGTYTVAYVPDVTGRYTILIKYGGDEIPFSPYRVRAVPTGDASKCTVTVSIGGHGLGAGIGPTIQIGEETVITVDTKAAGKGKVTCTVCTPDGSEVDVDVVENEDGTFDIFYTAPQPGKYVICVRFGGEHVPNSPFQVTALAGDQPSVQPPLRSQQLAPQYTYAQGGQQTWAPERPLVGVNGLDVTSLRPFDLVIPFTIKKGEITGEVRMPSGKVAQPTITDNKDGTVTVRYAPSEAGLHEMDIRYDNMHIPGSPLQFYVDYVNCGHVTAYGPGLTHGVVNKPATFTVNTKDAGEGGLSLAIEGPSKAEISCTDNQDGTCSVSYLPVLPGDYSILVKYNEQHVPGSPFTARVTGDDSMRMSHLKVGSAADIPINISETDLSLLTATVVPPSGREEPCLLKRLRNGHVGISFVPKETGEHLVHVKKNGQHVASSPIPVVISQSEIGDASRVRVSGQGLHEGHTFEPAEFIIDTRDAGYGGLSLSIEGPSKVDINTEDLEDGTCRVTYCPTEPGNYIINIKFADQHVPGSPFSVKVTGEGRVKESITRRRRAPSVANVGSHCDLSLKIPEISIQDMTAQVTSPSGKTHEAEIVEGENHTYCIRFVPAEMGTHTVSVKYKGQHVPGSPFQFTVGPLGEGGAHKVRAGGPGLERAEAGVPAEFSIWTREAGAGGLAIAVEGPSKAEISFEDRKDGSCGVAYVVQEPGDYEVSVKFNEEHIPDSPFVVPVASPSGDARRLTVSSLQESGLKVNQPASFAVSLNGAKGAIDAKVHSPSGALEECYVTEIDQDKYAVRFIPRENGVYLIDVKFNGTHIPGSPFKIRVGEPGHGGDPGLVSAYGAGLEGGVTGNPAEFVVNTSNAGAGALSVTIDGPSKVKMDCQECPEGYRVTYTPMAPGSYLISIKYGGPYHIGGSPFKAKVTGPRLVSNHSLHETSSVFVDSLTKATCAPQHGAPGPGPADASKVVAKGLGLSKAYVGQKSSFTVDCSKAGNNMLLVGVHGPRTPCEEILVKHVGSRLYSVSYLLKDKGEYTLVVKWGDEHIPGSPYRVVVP
UniProt P06239: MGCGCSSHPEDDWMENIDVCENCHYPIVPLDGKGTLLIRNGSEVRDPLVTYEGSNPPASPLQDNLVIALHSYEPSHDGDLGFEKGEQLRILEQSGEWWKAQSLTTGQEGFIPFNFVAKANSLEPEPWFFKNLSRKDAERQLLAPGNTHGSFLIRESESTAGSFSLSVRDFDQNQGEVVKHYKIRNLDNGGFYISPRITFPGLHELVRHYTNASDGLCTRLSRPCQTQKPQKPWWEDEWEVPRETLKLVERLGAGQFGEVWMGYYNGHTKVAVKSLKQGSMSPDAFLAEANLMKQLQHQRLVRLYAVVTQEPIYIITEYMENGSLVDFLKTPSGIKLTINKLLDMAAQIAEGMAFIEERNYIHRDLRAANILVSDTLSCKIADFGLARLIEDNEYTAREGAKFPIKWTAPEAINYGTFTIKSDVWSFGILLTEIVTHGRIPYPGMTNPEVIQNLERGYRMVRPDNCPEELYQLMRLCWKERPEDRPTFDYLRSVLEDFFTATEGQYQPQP
UniProt P43403: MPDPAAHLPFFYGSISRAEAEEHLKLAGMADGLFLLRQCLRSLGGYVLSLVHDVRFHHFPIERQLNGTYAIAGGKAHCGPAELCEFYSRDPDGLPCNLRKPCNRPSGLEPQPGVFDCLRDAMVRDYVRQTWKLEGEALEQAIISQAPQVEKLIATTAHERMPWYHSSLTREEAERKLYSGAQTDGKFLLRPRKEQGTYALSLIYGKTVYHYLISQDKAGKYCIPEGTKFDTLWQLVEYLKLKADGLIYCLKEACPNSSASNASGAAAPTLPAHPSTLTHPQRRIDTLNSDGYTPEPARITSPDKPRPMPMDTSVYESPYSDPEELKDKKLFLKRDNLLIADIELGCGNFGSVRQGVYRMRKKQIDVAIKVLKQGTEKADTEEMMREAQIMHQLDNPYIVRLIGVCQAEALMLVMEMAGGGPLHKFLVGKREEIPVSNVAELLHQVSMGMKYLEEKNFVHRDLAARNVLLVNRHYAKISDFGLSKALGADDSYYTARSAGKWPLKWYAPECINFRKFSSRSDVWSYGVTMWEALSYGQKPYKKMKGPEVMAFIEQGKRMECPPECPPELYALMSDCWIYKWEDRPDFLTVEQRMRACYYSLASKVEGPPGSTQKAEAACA

These are yes or no findings as the source states them, for the method shown. In cells and extracts the contact can be indirect. Some entries that bind do so weakly or less than the wild type.

In experiment [1] the target is YAP-Flag (UniProt P46937). As to the kind of experiment: co-IP; 293T cells transfected with YAP-Flag and LCK-Myc or ZAP70-HA vector; immunoprecipitation of YAP (anti-Flag antibody, Protein-A agarose, 4 °C), immunoblot.
The target of experiment [2] is filamin A (UniProt P21333). The experiment is described as follows: co-IP; co-immunoprecipitation of perforin and FLNA (Supplementary Fig. 2i); cells and bait not given.

With “LCK-Myc (from UniProt P06239 1-509) (enzyme)”, in experiment [1], the binding entry is on record as “binds”. Consider “ZAP70-HA (from UniProt P43403 1-619) (enzyme)”, for which the binding result in experiment [1] was “binds”.

B1: perforin (protein, UniProt P14222 22-555)
chain: PCHTAARSECKRSHKFVPGAWLAGEGVDVTSLRRSGSFPVDTQRFLRPDGTCTLCENALQEGTLQRLPLALTNWRAQGSGCQRHVTRAKVSSTEAVARDAARSIRNDWKVGLDVTPKPTSNVHVSVAGSHSQAANFAAQKTHQDQYSFSTDTVECRFYSFHVVHTPPLHPDFKRALGDLPHHFNASTQPAYLRLISNYGTHFIRAVELGGRISALTALRTCELALEGLTDNEVEDCLTVEAQVNIGIHGSISAEAKACEEKKKKHKMTASFHQTYRERHSEVVGGHHTSINDLLFGIQAGPEQYSAWVNSLPGSPGLVDYTLEPLHVLLDSQDPRREALRRALSQYLTDRARWRDCSRPCPPGRQKSPRDPCQCVCHGSAVTTQDCCPRQRGLAQLEVTFIQAWGLWGDWFTATDAYVKLFFGGQELRTSTVWDNNNPIWSVRLDFGDVLLATGGPLRLQVWDQDSGRDDDLLGTCDQAPKSGSHEVRCNLNHGHLKFRYHARCLPHLGGGTCLDYVPQMLLGEPPGNRSGAVW
As to B1, the binding result in experiment [2] is reported as “no binding”.
